From US20260258048A1, “LACTAM-CONTAINING IMIDAZOPYRIDAZINE IL-17 INHIBITOR COMPOUNDS” (Janssen Pharmaceutica NV, priority 2023, published 2026)

System: IL-17A-induced G-CSF production in human normal keratinocyte (NHK)
Assay: NHK assay: IL-17A-induced G-CSF production in normal human keratinocytes
Format: cell-based
Conditions: (S)-configuration on C-3 (cis) vs (R)-epimer (trans): Example 51 vs 52, Example 59 vs 60
Protocol: IL-17A acts directly on keratinocytes through binding to dimeric receptor IL-17RA/RC and drives the production of a number of inflammatory mediators known to be elevated in psoriasis lesional tissue. IL-17A small molecule inhibitors that block the IL-17A to interact with IL-17R would inhibit the IL-17A signaling in its targeted cells such as keratinocytes. The compound functional activity is evaluated for its impact on IL-17A-induced G-CSF production in human normal keratinocyte (NHK).
Adult normal human keratinocytes are cultured in keratinocyte growth medium (Lonza) in a flask till reaching ~90% confluence, then cells are transferred to a 384-well plate at density of 3000-4000 cell/well. Recombinant human IL-17A (Gibco PHC9174) is pre-incubated with titrated compound or DMSO for 1 h at rt then added to the cell culture plate. The final concentration of IL-17A is 5 ng/mL and DMSO is 0.2%, in the culture containing 5% FBS. Cells are cultured/treated for 24 h at 37° C. Supernatants are collected and G-CSF production is measured through HTRF technology using Human G-CSF Kit (CisBio). G-CSF concentration was extrapolated from the standard curve and IC50 is determined using GraphPad Prism. Cell viability is also evaluated using CellTiter-Glo kit (Promega) and effect of compound on cell viability is compared to DMSO control.

## CC(C)n1nccc1C(=O)N[C@H](c1cn2ncc(C[C@H]3C[C@@H](C(F)(F)F)NC3=O)cc2n1)C1CCC(F)(F)CC1 [Example 51, N—((S)-(4,4-Difluorocyclohexyl)(7-(((3S,5S)-2-oxo-5-(trifluoromethyl)pyrrolidin-3-yl)methyl)imidazo[1,2-b]pyridazin-2-yl)methyl)-1-isopropyl-1H-pyrazole-5-carboxamide]
  potency increase in the NHK IC50 when compared to its C-3 epimer: more than 100 fold

## O=C(N[C@H](c1cn2ncc(C[C@H]3C[C@@H](C(F)(F)F)NC3=O)cc2n1)C1CCC(F)(F)CC1)c1nonc1C1CC1 [Example 59, 4-Cyclopropyl-N—[(S)-(4,4-difluorocyclohexyl)-[7-[[(3S,5S)-2-oxo-5-(trifluoromethyl)pyrrolidin-3-yl]methyl]imidazo[1,2-b]pyridazin-2-yl]methyl]-1,2,5-oxadiazole-3-carboxamide]
  potency increase in the NHK IC50 when compared to its C-3 epimer: more than 80 fold
